Reference: article PMC6703689, “The heterogeneous nuclear ribonucleoprotein hnRNPM inhibits RNA virus-triggered innate immunity by antagonizing RNA sensing of RIG-I-like receptors” (PLoS Pathogens, 2019)

Columns and labels:
[1] = biological target: helicase-CTD of RIG-I (human); assay: co-IP; HEK293 cells transiently transfected with the indicated plasmids; NP-40 lysis buffer (20 mM Tris-HCl pH 7.4, 150 mM NaCl, 1 mM EDTA, 1% NP-40); immunoprecipitation and immunoblotting
[2] = biological target: helicase-CTD of MDA5 (human); assay: as above

B1: recombinant hnRNPM (pGEX6p-1-GST-hnRNPM) (natural protein, human, UniProt P52272 1-730, looked up)
chain: MAAGVEAAAEVAATEIKMEEESGAPGVPSGNGAPGPKGEGERPAQNEKRKEKNIKRGGNRFEPYANPTKRYRAFITNIPFDVKWQSLKDLVKEKVGEVTYVELLMDAEGKSRGCAVVEFKMEESMKKAAEVLNKHSLSGRPLKVKEDPDGEHARRAMQKVMATTGGMGMGPGGPGMITIPPSILNNPNIPNEIIHALQAGRLGSTVFVANLDYKVGWKKLKEVFSMAGVVVRADILEDKDGKSRGIGTVTFEQSIEAVQAISMFNGQLLFDRPMHVKMDERALPKGDFFPPERPQQLPHGLGGIGMGLGPGGQPIDANHLNKGIGMGNIGPAGMGMEGIGFGINKMGGMEGPFGGGMENMGRFGSGMNMGRINEILSNALKRGEIIAKQGGGGGGGSVPGIERMGPGIDRLGGAGMERMGAGLGHGMDRVGSEIERMGLVMDRMGSVERMGSGIERMGPLGLDHMASSIERMGQTMERIGSGVERMGAGMGFGLERMAAPIDRVGQTIERMGSGVERMGPAIERMGLSMERMVPAGMGAGLERMGPVMDRMATGLERMGANNLERMGLERMGANSLERMGLERMGANSLERMGPAMGPALGAGIERMGLAMGGGGGASFDRAIEMERGNFGGSFAGSFGGAGGHAPGVARKACQIFVRNLPFDFTWKMLKDKFNECGHVLYADIKMENGKSKGCGVVKFESPEVAERACRMMNGMKLSGREIDVRIDRNA
notes: hnRNPM, human; cloned in pGEX-6p-1; No cleavage of GST is told; the MST methods call the same preparation GST-hnRNPM, so the tag was probably still on the protein in the pull-down; source: E. coli BL21, purified (GST resins, eluted with reduced glutathione)
With B1 the binding [1] was “binds” and the binding [2] was “binds”.

These are yes or no findings as the source states them, for the method shown. Binding seen in cells or lysates may run through a third protein. Binding calls can cover weak binding; strength is not graded here. Tags and fused reporters may be left off the sequences shown.
